Values from PubChem BioAssay AID1259308 (NCATS, 2017)

Purpose: 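Genes whose loss raises luciferase production in HEK293 cells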 (primary screen)
Cells: human HEK293 embryonic kidney cells stably expressing firefly luciferase (HEK-CMV-Luc2-Hygro)
Reagent: single siRNA against human genes, 0.8 pmol siRNA per well
Time to read-out: 72 h
Read-out: 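Reporter luminescence and viable-cell signal on separate replicate plates, given as percent of non-targeting control and median/MAD z-scores, plus per-cell luciferase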
Scale: total luciferase, z-score and total luciferase, % of control: higher = more reporter protein produced; luciferase per cell, z-score: higher = more reporter output per viable cell; viable cells, % of control: higher = more viable cells
Call rule: 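Active when the median/MAD z-score for overall luciferase is greater than 3; a gene was taken forward for validation with new siRNAs if at least two of its three siRNAs passed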
Meaning of the calls: active = raised luciferase; inactive = no rise
In all, the deposit lists about 59,000 reagents; below is an unselected part. About 1,510 of them (2.6%) were called active. 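Calls use total luciferase alone and ignore viability, so some active siRNAs may act by altering cell number.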 A number with no mark means an inactive call. The numbers tell different reagents against one gene apart.

The first 4 entries as a preview:
| gene | reagent no. | total luciferase, z-score | total luciferase, % of control | luciferase per cell, z-score | viable cells, % of control |
| --- | --- | --- | --- | --- | --- |
| ZG16 | 1 | 0.647 | 94.7 | 0.16 | 102 |
| ZG16 | 2 | -1.19 | 58.3 | -0.963 | 84 |
| ZG16 | 3 | 0.398 | 89.8 | 0.0336 | 99.5 |
| ZG16 | 4 | 0.96 | 101 | 0.635 | 95.5 |

The list itself, from the first entry:
| gene | reagent no. | total luciferase, z-score | total luciferase, % of control | luciferase per cell, z-score | viable cells, % of control |
| --- | --- | --- | --- | --- | --- |
| ZG16 | 1 | 0.647 | 94.7 | 0.16 | 102 |
| ZG16 | 2 | -1.19 | 58.3 | -0.963 | 84 |
| ZG16 | 3 | 0.398 | 89.8 | 0.0336 | 99.5 |
| ZG16 | 4 | 0.96 | 101 | 0.635 | 95.5 |
| ZG16 | 5 | 0.662 | 95.1 | 0.634 | 89.9 |
| ZG16 | 6 | 1.62 | 114 | 1.32 | 90 |
| TMEM165 | 1 | -0.348 | 75 | -1.11 | 112 |
| TMEM165 | 2 | 0.932 | 100 | 0.441 | 99.9 |
| TMEM165 | 3 | 0.161 | 85.1 | 1.26 | 68.2 |
| PHLDA3 | 1 | 2.03 | 122 | 0.439 | 122 |
| PHLDA3 | 2 | 0.862 | 99 | 0.691 | 92.2 |
| PHLDA3 | 3 | 0.161 | 85.1 | -0.144 | 98.7 |
| AVPI1 | 1 | 0.689 | 95.6 | -0.062 | 109 |
| AVPI1 | 2 | 0.12 | 84.3 | -0.337 | 103 |
| AVPI1 | 3 | 1.48 | 111 | 0.897 | 98.2 |
| BHMT2 | 1 | 0.704 | 95.9 | 1.04 | 81.4 |
| BHMT2 | 2 | 0.413 | 90.1 | 0.55 | 87.1 |
| BHMT2 | 3 | 0.891 | 99.6 | 1.2 | 81.1 |
| DKKL1 | 1 | -2.08 | 40.5 | -2.32 | 83.4 |
| DKKL1 | 2 | 0.159 | 85.1 | 0.375 | 86.1 |
| DKKL1 | 3 | -0.538 | 71.2 | -0.609 | 93.4 |
| OR1F1 | 1 | -2.22 | 37.7 | -1.99 | 71.1 |
| OR1F1 | 2 | -1.19 | 58.2 | -1.31 | 92 |
| OR1F1 | 3 | 0.0856 | 83.6 | -0.0474 | 94.6 |
| ANKH | 1 | -1.15 | 59.1 | -0.986 | 85.6 |
| ANKH | 2 | -1.05 | 61.1 | -1.36 | 97.7 |
| ANKH | 3 | -0.245 | 77 | 0.219 | 81.2 |
| ANP32CP | 1 | -0.263 | 76.7 | -0.719 | 104 |
| ANP32CP | 2 | 0.81 | 98 | 0.461 | 97 |
| ANP32CP | 3 | -0.574 | 70.5 | -0.239 | 83.9 |
| CLDN9 | 1 | -0.219 | 77.5 | 0.913 | 68.1 |
| CLDN9 | 2 | -1.34 | 55.3 | -1.26 | 86.1 |
| CLDN9 | 3 | 0.438 | 90.6 | -0.0834 | 103 |
| BACE2 | 1 | -1.24 | 57.2 | -1.06 | 84.5 |
| BACE2 | 2 | -0.0675 | 80.5 | -0.36 | 99 |
| BACE2 | 3 | 1.09 | 104 | 0.398 | 104 |
| ITPRIPL1 | 1 | 3.79 (active) | 157 | 2.59 | 88.7 |
| ITPRIPL1 | 2 | 1.28 | 107 | 0.677 | 100 |
| ITPRIPL1 | 3 | 1.7 | 116 | 1.02 | 98.7 |
| SYT6 | 1 | 0.579 | 93.4 | 0.655 | 87.8 |
| SYT6 | 2 | -2.26 | 36.8 | -2.17 | 72.9 |
| SYT6 | 3 | 1.05 | 103 | 0.566 | 99 |
| IDNK | 1 | -0.241 | 77.1 | -0.481 | 97.8 |
| IDNK | 2 | 0.833 | 98.5 | 0.726 | 90.9 |
| IDNK | 3 | 0.449 | 90.8 | 0.929 | 79.5 |
| ZER1 | 1 | -0.997 | 62.1 | -0.207 | 73.2 |
| ZER1 | 2 | -0.253 | 76.9 | -0.561 | 99.6 |
| ZER1 | 3 | 0.626 | 94.3 | 0.133 | 102 |
| DCTN1 | 1 | -1.71 | 47.9 | -0.268 | 57.5 |
| DCTN1 | 2 | -0.945 | 63.1 | -1.26 | 98.1 |
| DCTN1 | 3 | 2.38 | 129 | 1.12 | 108 |
| MOV10 | 1 | 0.496 | 91.7 | 0.0583 | 101 |
| MOV10 | 2 | -0.0313 | 81.3 | 0.869 | 72.2 |
| MOV10 | 3 | 4.77 (active) | 177 | 4.54 | 59.8 |
| ASPSCR1 | 1 | 1.37 | 109 | 1.63 | 79.5 |
| ASPSCR1 | 2 | 0.0108 | 82.1 | 0.12 | 88.9 |
| ASPSCR1 | 3 | -1.24 | 57.2 | -1.42 | 92.8 |
